The nature of this test: qHTS Assay to Find Inhibitors of Chronic Active B-Cell Receptor Signaling. The note with it: ABC-DLBCL IkBa-CBG/CBR reporter, luminescence ratio (green luciferase fused to IkBa over red control in TMD8 lymphoma cells), 4 h. An outline of the steps:
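Doxycycline induced both beetle luciferases in TMD8 lymphoma cells; IKK-driven degradation limits the IkappaBalpha-fused green signal, while red luminescence normalises for cell number and nonspecific effects. Compounds tested up to 46 uM, 4 hrs.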

Where [1] appears, read: measured here: CBR red luminescence, cell number.
[2] abbreviates: measured here: IkBa-CBG green luminescence.

The term AC50 denotes the concentration giving half of the maximal activity seen.

The list shows a part of the results. Shown are side measurements of this screen, not its main read-out; they come without a call. Compounds called inactive in the main read-out are mostly missing here. Words in brackets tell the shape of the fitted curve; partial curves, single points and poor fits give uncertain potencies.

In the case of `O=C(CSc1nnc(-c2ccccc2)n1Cc1ccco1)NCc1ccc2c(c1)OCO2`, under setting [1], the half-maximal activity concentration (AC50) is 0.206 µM [rising, full curve].
In the case of `COc1c(C)cc(C(=O)C2CCCN(S(=O)(=O)N(C)C)C2)cc1C` (stereo not drawn), the AC50 under setting [1] was 3.16 µM [rising, partial curve, poor fit].
With `C=CCN1C(=O)C(Cc2cccc(Cl)c2)S/C1=N/N=C/c1ccco1` (stereo not drawn), the half-maximal activity concentration (AC50) under setting [1] was 8.2 µM [rising, partial curve, poor fit].
In the case of `CCOc1ccccc1NC(=O)CCS(=O)(=O)c1cccc2nsnc12`, the AC50 under setting [1] is 35.5 µM [falling, partial curve, poor fit].
As for `O=C(Nc1ccc(N2CCOCC2)cc1)Nc1cnsn1`, the AC50 under setting [1] is 20.6 µM [falling, single point].
As for `CC1(C)CC(=O)C2=C(C1)OC1=C(C(=O)CC(C)(C)C1)C2c1ccc(O)cc1O`, the concentration at half-maximal activity (AC50) under setting [1] is 35.5 µM [falling, single point].
`CCCN1CC=C2C(C#N)=C(N)C(C#N)(C#N)C(c3cc(OC)ccc3OC)C2C1` (stereo not drawn): the concentration at half-maximal activity (AC50) under setting [1] is 35.5 µM [falling, partial curve, poor fit].
With `O=C(c1cc(-c2ccc(Cl)cc2)on1)N1CCCC1`, the AC50 under setting [1] was 2.24 µM [falling, full curve].
Take `COc1cc(OC)c(C(=O)O/N=C(\N)c2cccc(C)c2)cc1OC`: the concentration at half-maximal activity (AC50) under setting [1] was 3.55 µM [rising, partial curve].
Same read-out and setting: the same measure for `O=C(N/N=C/c1ccc(Cl)s1)c1ccccc1[N+](=O)[O-]`: 5.62 µM [falling, partial curve, poor fit].
On to `Cc1ccc2nc(NC(=O)Cc3cccs3)sc2c1`, for which the AC50 under setting [1] is 5.8 µM [falling, partial curve, poor fit].
For the compound `CC(=O)Nc1ncnc2c1c(-c1ccc(Cl)cc1)nn2C(C)(C)C`, under setting [1], the AC50 was 12.6 µM [falling, partial curve].
Still for that read-out and setting: under `O=C(Nc1ccc2c(c1)CCC2)c1cc2ccccc2o1` stands 16.4 µM [falling, single point].
With `CC(=O)Nc1ccc(NC(=O)CSC2=NS(=O)(=O)c3cc(F)ccc3N2)cc1`, the half-maximal activity concentration (AC50) under setting [1] was 0.517 µM [falling, partial curve, poor fit].
For `O=C(Nc1ccccc1)Nc1ccc2c(c1)CCC2`, the concentration at half-maximal activity (AC50) under setting [1] was 35.5 µM [falling, single point].
Regarding `COc1ccc2cc(C(=O)N/N=C/c3sc4ccccc4c3O)ccc2c1`, the half-maximal activity concentration (AC50) under setting [1] is 20.6 µM [falling, partial curve].
For the compound `Cc1cc(NC(=O)COc2ccc3ccccc3c2)no1`, the AC50 under setting [1] was 1.58 µM [rising, partial curve, poor fit].
On to `COc1cc2sc(NC(=O)c3ccco3)nc2cc1Cl`, for which, under setting [1], the AC50 was 1.58 µM [falling, full curve, poor fit].
For `Cc1nnc(NC(=O)c2sc3ccccc3c2Cl)s1`, under setting [1], the concentration at half-maximal activity (AC50) was 17.8 µM [falling, single point].
In the case of `CC(C)(C)CC(C)(C)c1ccc(O)c(CN2CCN(CCC#N)CC2)c1`, the AC50 under setting [1] is 32.6 µM [falling, single point].
For the compound `COCC(C)NC(=O)CSc1ncnc2sc(-c3ccccc3)cc12` (stereo not drawn), the AC50 under setting [1] was 0.112 µM [rising, full curve, poor fit].
Still for that read-out and setting: under `O=C1c2ccccc2C(=O)N1c1ccc(Cl)cc1` stands 1.84 µM [falling, partial curve, poor fit].
For the compound `O=C(CSc1ccc(-c2ccccn2)nn1)N1CCCCC1`, the AC50 under setting [2] was 6.31 µM [rising, full curve, poor fit].
In the case of `COC(=O)c1ccc(NS(=O)(=O)c2cccc3cccnc23)cc1`, the AC50 under setting [1] was 5.17 µM [rising, full curve].
For the compound `COc1cc(C(=O)Nc2ccc(O)cc2C(=O)O)ccc1OC(C)=O`, the AC50 under setting [1] is 1 µM [falling, full curve].
Turning to `COc1ccccc1CN(C)C(C)C(=O)Nc1cccc(C(C)=O)c1` (stereo not drawn), the AC50 under setting [1] was 20 µM [rising, single point].
As for `COc1cc(OC)cc(C(=O)NC2CCCN(Cc3ccc(Cl)cc3)C2)c1` (stereo not drawn), the half-maximal activity concentration (AC50) under setting [1] was 25.1 µM [falling, single point].
In the case of `Cc1ccc(O)c(NC(=O)CSc2n[nH]c(-c3ccccc3)n2)c1`, the concentration at half-maximal activity (AC50) under setting [1] was 12.6 µM [falling, single point].
On to `Fc1cccc2sc(Nc3nnc(-c4ccco4)o3)nc12`, for which the AC50 was 0.92 µM [falling, full curve, poor fit] under setting [1] and 23.1 µM [falling, single point] under setting [2].
Turning to `O=C(NCCC1=CCCCC1)c1cc(S(=O)(=O)N2CCOCC2)c(Cl)cc1Cl`, the concentration at half-maximal activity (AC50) under setting [1] was 0.116 µM [falling, full curve, poor fit].
As to `Cc1ccccc1CNC(=O)c1ccc(Cl)c([N+](=O)[O-])c1`, under setting [1], the concentration at half-maximal activity (AC50) was 29.1 µM [falling, single point].
Take `N#CC(C#N)=Cc1cn(-c2ncc(C(F)(F)F)cc2Cl)c2ccccc12`: the AC50 under setting [1] was 23.1 µM [falling, partial curve, poor fit].
For `CCOc1ccc(OCCCCNCCN)cc1`, the AC50 under setting [1] is 6.51 µM [rising, single point].
On the same count and under the same terms, under `COc1ccc(N=C(N)SCc2ccccn2)cc1` stands 23.1 µM [falling, partial curve, poor fit]; under `O=C(N/N=C/c1cccc(Oc2ccccc2)c1)c1ccc(O)cc1O`, 4.47 µM [falling, partial curve, poor fit].
As to `CCN(CC(=O)Nc1ccc2c(c1)OCCO2)Cc1cc(=O)oc2cc(C)c(C)cc12`, the AC50 was 0.259 µM [rising, partial curve, poor fit] under setting [1] and 23.1 µM [falling, single point] under setting [2].
For `COc1ccc(N2C(=O)CC(Sc3ncccc3C(=O)O)C2=O)cc1` (stereo not drawn), under setting [1], the AC50 is 32.6 µM [rising, single point].
In the case of `O=C(Nc1ccccc1F)c1ccco1`, under setting [1], the AC50 is 20.6 µM [falling, partial curve, poor fit].
The same measure, in the same setting: under `Cc1ccc(CNC(=O)C(=O)NCC2OCCN2S(=O)(=O)c2ccc3c(c2)OCCO3)cc1` (stereo not drawn) stands 2.91 µM [rising, full curve, poor fit]; under `Cn1c(CSCc2ccc(F)cc2)nnc1SCC(=O)Nc1cccc(C(=O)O)c1`, 17.8 µM [rising, single point].
As for `Cc1ccc2cccc(SCC(=O)Nc3ccc(F)cc3)c2n1`, the AC50 under setting [1] was 2.51 µM [falling, partial curve, poor fit].
With `Cc1ccc(-c2cc(-c3ccc(C)cc3O)[nH]n2)cc1`, the concentration at half-maximal activity (AC50) under setting [1] was 5.01 µM [falling, partial curve].
Consider `COc1ccc(C(=O)NCCC2=CCCCC2)cc1[N+](=O)[O-]`, for which, under setting [1], the AC50 was 28.2 µM [rising, partial curve, poor fit].
`O=C(NCCCn1ccnc1)c1ccncc1`: the concentration at half-maximal activity (AC50) under setting [1] was 11.2 µM [rising, partial curve, poor fit].
Take `COc1ccc(NC(=O)CSc2c3c(nc4cc(Cl)ccc24)CCCC3)cc1OC`: the half-maximal activity concentration (AC50) under setting [1] was 11.6 µM [falling, partial curve].
Still for that read-out and setting: the same measure for `O=C(NN=Cc1ccc(O)cc1O)c1ccccc1NS(=O)(=O)c1cccs1`: 16.4 µM [falling, partial curve]; for `CC(C)(C)n1cnc2cc(NC(=O)c3cccs3)ccc21`: 15.8 µM [falling, single point]; for `Cc1ccc(S(=O)(=O)N2CCN(C(=O)COC(=O)CNC(=O)c3ccccc3)CC2)c(C)c1`: 9.2 µM [rising, partial curve].
`OC(CNCC1(N2CCCCC2)CCCCC1)COc1ccc(Cl)cc1Cl` (stereo not drawn): the half-maximal activity concentration (AC50) under setting [1] was 35.5 µM [falling, single point].
Regarding `COc1cccc(NC(=O)Nc2ccc3c(c2)nnn3C)c1`, under setting [1], the AC50 was 5.17 µM [falling, full curve].
On to `COc1cccc(/C=N/NC(=O)c2cccs2)c1`, for which, under setting [1], the half-maximal activity concentration (AC50) is 11.2 µM [falling, partial curve, poor fit].
Same read-out and setting: the same measure for `COc1ccc(CNC(=O)/C=C/c2ccco2)cc1OC`: 35.5 µM [rising, single point].
For the compound `CCn1cnc2sc(C(=O)Oc3cccc(C)c3)c(C)c2c1=O`, the AC50 under setting [1] is 22.4 µM [rising, partial curve, poor fit].
Consider `CCNc1nc(NCC)nc(N/N=C/c2ccc(O)c(O)c2)n1`, for which the AC50 under setting [1] is 35.5 µM [falling, single point].
In the case of `Cc1ccc(C(=C2C3C=CC2C2C(=O)NC(=O)C32)c2ccc(C)cc2)cc1` (stereo not drawn), the concentration at half-maximal activity (AC50) under setting [1] was 3.26 µM [rising, partial curve, poor fit] and the half-maximal activity concentration (AC50) under setting [2] was 6.51 µM [falling, single point].
Regarding `Cc1ccc(NC(=O)Nc2ccc(Cl)cc2)c(Br)c1`, under setting [1], the AC50 was 0.651 µM [rising, full curve].
With `CCN=c1scc(-c2ccc(F)cc2)n1/N=C/c1ccccn1`, the AC50 under setting [2] was 22.4 µM [falling, single point].
Turning to `Cc1cc(C)nc(N/N=C/c2ccccc2OCc2cccc(Br)c2)n1`, under setting [1], the AC50 is 20.6 µM [falling, single point].
With `COc1ccc(/C=C2\SC(=O)N(CCC(=O)N3CCN(C)CC3)C2=O)cc1`, under setting [1], the AC50 is 5.62 µM [falling, partial curve].
On to `CCOC(=O)C1=C(CN2CC(C)CC(C)C2)NC(=O)NC1c1ccc2c(c1)OCO2` (stereo not drawn), for which the concentration at half-maximal activity (AC50) under setting [1] was 35.5 µM [rising, single point].
Still for that read-out and setting: under `O=[N+]([O-])c1ccc2oc(-c3ccccc3)nc2c1` stands 1.12 µM [rising, partial curve, poor fit].
Same read-out and setting: under `Cc1cc2n(n1)C(c1sccc1C)Nc1ccccc1-2` (stereo not drawn) stands 6.31 µM [rising, single point]; under `CCCCC(=O)Nc1nc2c(OC)cc([N+](=O)[O-])cc2s1`, 3.55 µM [falling, partial curve, poor fit]; under `Cc1ccc2nc(NC(=O)CCCC(=O)O)sc2c1`, 0.316 µM [falling, full curve, poor fit].
Consider `CCc1nnc(NC(=O)c2nc(S(=O)(=O)Cc3cccc(C)c3)ncc2Cl)s1`, for which the AC50 under setting [1] is 35.5 µM [falling, single point].

Source of the values: PubChem BioAssay AID493014 (National Center for Advancing Translational Sciences (NCATS), 2011).
